Laboratory results published in publication PMC7413564, “Phase separation of Arabidopsis EMB1579 controls transcription, mRNA splicing, and development” (PLoS Biology, 2020).
Results are given in words; binding and its absence hold for the method and conditions named. Binding seen in cells or lysates may run through a third protein. Some results given as binding are weak or reduced against the parent protein; the word gives no strength. Tags and fused reporters may be left off the sequences shown.

Target: T1, EMB1579-NLuc (Arabidopsis thaliana) (UniProt F4IS91)
T1 sequence: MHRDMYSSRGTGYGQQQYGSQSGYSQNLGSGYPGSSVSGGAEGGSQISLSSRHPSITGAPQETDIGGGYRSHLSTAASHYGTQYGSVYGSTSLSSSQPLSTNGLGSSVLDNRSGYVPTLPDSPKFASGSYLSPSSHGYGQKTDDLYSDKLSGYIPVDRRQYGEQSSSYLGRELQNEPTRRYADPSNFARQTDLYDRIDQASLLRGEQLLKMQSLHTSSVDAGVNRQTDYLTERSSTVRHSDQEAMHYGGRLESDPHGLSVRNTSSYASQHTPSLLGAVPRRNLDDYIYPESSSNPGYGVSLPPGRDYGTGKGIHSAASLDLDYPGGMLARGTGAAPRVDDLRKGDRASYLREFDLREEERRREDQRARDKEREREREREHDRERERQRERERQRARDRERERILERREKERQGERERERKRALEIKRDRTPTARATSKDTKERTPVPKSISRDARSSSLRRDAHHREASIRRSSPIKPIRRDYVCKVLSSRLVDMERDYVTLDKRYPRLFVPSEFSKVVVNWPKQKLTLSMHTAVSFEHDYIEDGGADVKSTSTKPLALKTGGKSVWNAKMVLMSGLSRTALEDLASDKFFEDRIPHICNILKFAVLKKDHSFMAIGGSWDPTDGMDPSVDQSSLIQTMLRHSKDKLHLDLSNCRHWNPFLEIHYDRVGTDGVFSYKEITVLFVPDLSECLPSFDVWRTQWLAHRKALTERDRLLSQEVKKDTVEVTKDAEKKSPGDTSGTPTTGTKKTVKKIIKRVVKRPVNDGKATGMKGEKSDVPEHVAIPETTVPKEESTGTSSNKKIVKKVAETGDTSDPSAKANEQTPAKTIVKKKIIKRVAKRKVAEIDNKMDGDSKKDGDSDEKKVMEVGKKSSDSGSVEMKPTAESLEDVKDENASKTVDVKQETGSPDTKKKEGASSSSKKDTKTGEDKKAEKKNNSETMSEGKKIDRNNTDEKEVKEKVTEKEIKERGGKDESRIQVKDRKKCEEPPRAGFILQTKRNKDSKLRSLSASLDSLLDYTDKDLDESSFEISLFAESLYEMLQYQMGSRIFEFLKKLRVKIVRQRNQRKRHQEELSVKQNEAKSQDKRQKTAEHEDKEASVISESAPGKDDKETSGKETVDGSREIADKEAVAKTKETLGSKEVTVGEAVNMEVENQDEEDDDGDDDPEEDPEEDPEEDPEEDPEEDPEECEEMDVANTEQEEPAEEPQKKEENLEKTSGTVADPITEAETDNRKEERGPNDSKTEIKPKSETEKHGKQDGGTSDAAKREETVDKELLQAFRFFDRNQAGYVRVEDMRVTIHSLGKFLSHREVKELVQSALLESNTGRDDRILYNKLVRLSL
Assay: split reporter; firefly split luciferase complementation imaging; NLuc and CLuc fusions co-infiltrated by Agrobacterium into N. benthamiana leaves, 60 hours, 1 mM D-luciferin

B1: CLuc-CHR28 (protein, UniProt Q94BR5 1-981)
chain: MDSAIDISSDSDVEIQETRTRPQHPPRIAEGSHRRDLSTLRPHFLSGSSSGANGHTKTGLTNLDSRNGFESKPLPRAEHHTHIPGNGSIVTSRIPNISVGDYEKFSSQQAFKRTHPPTFSRPPFPPRPDIGTSNGNASHFRGGAHDDLGMGRVTNGTRILPPSVAHGTSASPSHFNGLSDPMHRNGIGEERNSENDERLIYQAALQELNQPKSEVDLPAGLLSVPLMKHQKIALAWMFQKETNSLHCMGGILADDQGLGKTVSTIALILKQMHEAKLKSKNSGNQEAEALDLDADDESENAFEKPESKASNGSGVNGDSGIKKAKGEEASTSTRKFNRKRPAAGTLIVCPASVVRQWARELDEKVTDEAKLSVLIYHGGNRTKDPIELAKYDVVMTTYAIVSNEVPKQPLVDDDENDEKNSEKYGLASGFSINKKRKNVVGTTKKSKKKKGNNNAGDSSDPDSGTLAKVGWFRVVLDEAQTIKNHRTQVARACCGLRAKRRWCLSGTPIQNTIDDLYSYFRFLKYDPYAVYKSFCHQIKGPISRNSLQGYKKLQAVLRAIMLRRTKGTLLDGQPIINLPPKTINLSQVDFSVEERSFYVKLESDSRSQFKAYAAAGTLNQNYANILLMLLRLRQACDHPQLVKRYNSDSVGKVSEEAVKKLPKEDLVSLLSRLESSPICCVCHDPPEDPVVTLCGHIFCYQCVSDYITGDEDTCPAPRCREQLAHDVVFSKSTLRSCVADDLGCSSSEDNSHDKSVFQNGEFSSSKIKAVLDILQSLSNQGTSNSTQNGQMASSSQQPNDDDDDDDDDVTIVEKTSLKSTPSNGGPIKTIIFSQWTGMLDLVELSLIENSIEFRRLDGTMSLIARDRAVKEFSNDPDVKVMIMSLKAGNLGLNMIAACHVILLDLWWNPTTEDQAIDRAHRIGQTRPVTVTRITIKNTVEDRILALQEEKRKMVASAFGEDHGGSSATRLTVDDLKYLFMV
- binding: binds

B2: CLuc-MSI4 (protein, UniProt O22607 1-507)
chain: MESDEAAAVSPQATTPSGGTGASGPKKRGRKPKTKEDSQTPSSQQQSDVKMKESGKKTQQSPSVDEKYSQWKGLVPILYDWLANHNLVWPSLSCRWGPQLEQATYKNRQRLYLSEQTDGSVPNTLVIANCEVVKPRVAAAEHISQFNEEARSPFVKKYKTIIHPGEVNRIRELPQNSKIVATHTDSPDVLIWDVETQPNRHAVLGAANSRPDLILTGHQDNAEFALAMCPTEPFVLSGGKDKSVVLWSIQDHITTIGTDSKSSGSIIKQTGEGTDKNESPTVGPRGVYHGHEDTVEDVAFSPTSAQEFCSVGDDSCLILWDARTGTNPVTKVEKAHDADLHCVDWNPHDDNLILTGSADNTVRLFDRRKLTANGVGSPIYKFEGHKAAVLCVQWSPDKSSVFGSSAEDGLLNIWDYDRVSKKSDRAAKSPAGLFFQHAGHRDKVVDFHWNASDPWTIVSVSDDCETTGGGGTLQIWRMSDLIYRPEEEVVAELEKFKSHVMTCASKP
- binding: binds
